Measurements from patent US6015838A, “Aqueous film-forming foam compositions” (3M Innovative Properties Company, priority 1996, dated 2000).

Assay: Emulsion polymerization of hexafluoropropylene and vinylidene fluoride with surfactant as emulsifier
From the text: The following procedure was used to evaluate C7 F15 CF(CF3)COO^- NH4^+ (from Ex. M1) as an emulsifier to copolymerize hexafluoropropylene (HFP) and vinylidene fluoride.
A 1 gallon, vertically agitated stainless steel reactor with pressure and temperature controls was evacuated and twice purged with nitrogen. Using an isolated vacuum, a solution comprised of 2 g of ammonium persulfate (initiator) and 6 g of dipotassium phosphate dissolved in 2800 g of deionized water was introduced into the reactor. The remaining vacuum on the reactor was vented with nitrogen, and the solution was degassed twice under agitation using alternate vacuum and nitrogen purges. […] The reactor was vented with nitrogen, the solution was agitated very briefly, and the reactor was evacuated of nitrogen and isolated. Then the reactor was vented with hexafluoropropylene monomer to a pressure of approximately 10 psig (1280 torr total pressure), and the temperature of the batch was raised to 72° C. with high agitation. Maintaining the temperature at 72° C., a monomer mixture of 60% (wt) of vinylidene fluoride and 40% (wt) hexafluoropropylene was fed from a tared gas cylinder into the head space of the reactor to maintain a reactor pressure of 130 psig (7480 total pressure). After feeding in about 1 kg of monomer blend (approximately 3.75 hours duration), the introduction of monomer was ceased, the reaction was allowed to cool to room temperature, and any residual unreacted monomer was vented.
The resulting latex polymer was drained from the reactor, and percent solids of the latex was determined to be 25% by weight as measured by drying 10 g of latex in a forced air oven for 16 hours at 105° C.
The reactor body was separated from the reactor head, and a visual inspection of the reactor was made to determine the amount of coagulated polymer in the reactor (the amount should be minimal in a good polymerization reaction). A qualitative rating was assessed, ranging from "none" to "little" to "some."
The latex stability was determined by half filling a 16 oz (450 mL) jar with latex and shaking several hours in the horizontal position, quantitatively rating the latex after shaking using a 3-point scale ranging from 0=very stable to 3=unstable.
Particle size in the latex was determined using […] on a Coulter sub-micron particle size analyzer.
Degree of foaming was rated using the following qualitative scale: 0=not foamy, 1=slightly foamy, 2=moderately foamy, and 3=very foamy.
In Example P2, the same experiment was run as in Example P1, except that the concentration of C7 F15 CF(CF3)COO^- NH4^+ emulsifier was raised to 3500 ppm, the reaction time decreased from 3.75 to 3.5 hours, and the reaction temperature increased from 72° C. to 78° C.
In Comparative Examples P3-P6, the same experiment was run as in Example P1, except that C8 F17 SO2 N(C2 H5)CH2 COO^- K^+ (Fluorad™ FC-128 Fluorochemical Surfactant, available from 3M Company, St. Paul, Minn.), C7 F15 COO^- H4 N^+ (Fluorad™ FC-143 Fluorochemical Surfactant), and Surflon™ S111S Fluorochemical Surfactant (believed to be nominally telomer-based n-C9 F19 COO^- H4 N^+, commercially available from Asahi Glass Corp., Japan) were substituted for C7 F15 CF(CF3)COO^- H4 N^+ emulsifier.

SMILES | Coagulation (350 ppm emulsifier) | latex particle Size (3500 ppm emulsifier, 78° C.) | Coagulation (3500 ppm emulsifier, 78° C., listed as C7 F15 CF(CF3)COO^- NH4^+) | Coagulation (100 ppm emulsifier)
O=C(O)C(F)(C(F)(F)F)C(F)(F)C(F)(F)C(F)(F)C(F)(F)C(F)(F)C(F)(F)C(F)(F)F (stereo not shown) [Example M14, C7 F15 CF(CF3)COO^- H4 N^+] | some | 69 nm | none and coagulation was eliminated | 
O=C(O)C(F)(F)C(F)(F)C(F)(F)C(F)(F)C(F)(F)C(F)(F)C(F)(F)F [FC-143, C7 F15 COO^- H4 N^+] | some |  |  | 
CCN(CC(=O)O)S(=O)(=O)C(F)(F)C(F)(F)C(F)(F)C(F)(F)C(F)(F)C(F)(F)C(F)(F)C(F)(F)F [Fluorad ™ FC-128, C8 F17 SO2 N(C2 H5)CH2 COO^- K^+] | none |  |  | some
N.O=C(O)C(F)(F)C(F)(F)C(F)(F)C(F)(F)C(F)(F)C(F)(F)C(F)(F)C(F)(F)C(F)(F)F [Surflon ™ S111S, n-C9 F19 COO^- H4 N^+] | some |  |  | 
